Results taken from article PMC6214896.
These are yes or no findings as the source states them, for the method shown. Binding seen in cells or lysates may run through a third protein. Here binding means that the protein was enriched with, or labelled near, the bait; the list need not be complete.

Protein sequences, listed by entry. Tags and fused reporters are not part of them.
UniProt Q9Z2D8: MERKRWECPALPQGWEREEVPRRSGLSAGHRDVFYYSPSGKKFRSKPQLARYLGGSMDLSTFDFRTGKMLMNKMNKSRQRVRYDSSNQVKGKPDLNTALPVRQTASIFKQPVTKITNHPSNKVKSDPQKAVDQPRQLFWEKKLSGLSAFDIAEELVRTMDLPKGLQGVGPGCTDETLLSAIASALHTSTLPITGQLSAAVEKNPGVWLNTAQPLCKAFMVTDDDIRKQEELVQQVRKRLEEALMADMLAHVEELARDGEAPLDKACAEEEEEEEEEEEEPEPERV

Tests used:
[1] = target: MBD3-GFP (mouse) (UniProt Q9Z2D8); test: affinity purification with mass spectrometry; label-free GFP pulldown in triplicate: MBD3-GFP held on GFP-Trap beads from 2 mg ESC nuclear extract; Buffer C with 300 mM NaCl, 0.1% NP-40, 50 ug/mL ethidium bromide; on-bead digestion, nLC-MS/MS
[2] = target: MBD3-GFP (mouse) (UniProt Q9Z2D8); test: affinity purification with mass spectrometry; purification of MBD3-GFP from the ESC nuclear pellet fraction left after nuclear extraction, solubilised in RIPA buffer with benzonase (tightly chromatin-bound NuRD)

- binding [1]: binds
- binding [2]: binds
B1: zinc finger protein 296 (ZFP296) (protein, UniProt E9Q6W4 1-445)
chain: MSRRKAGRVPRRVDPDTDTDIEMPDLVMDVKPDLDLRSLAQGPWIARDMPISDVKRQLQTASRPLGAPSTCAPRMPLSSKSSDRQPWTDKHPDLLTCGRCGKIFPLGAIIAFMDHKKQGCQLLQVSDPISESKELKALSCLQCGRQYTSPWKLLCHAQWDHGLCIYQTQHLDTPEAPLLGLAEVAAAMSAVAVVAPVESKPPPVSSAARRSPTCDVCKKTLSSFSNLKVHMRSHTGERPYSCDQCSYACAQSSKLNRHKKTHRQLAPGSPSTSASSRGVSPAAPPEPAAYAAAPASTLPSQTVEKAGAAATAGVQEPGAPGSGAQGGPGFVGWGAPAKVERTDPVKIEKTAPRKSHGPGGKCEFCGKSFTNSSNLTVHRRSHTGERPYTCDQCPYACAQSSKLNRHRRTHGLGTGKTVKCPHCLVPFGLQATLDKHLRQKHPEMA
